{"source": "paper PMC9475207", "about": "“Neural crest cell-placodal neuron interactions are mediated by Cadherin-7 and N-cadherin during early chick trigeminal ganglion assembly” (F1000Research, 2022)", "binders": {"B1": {"name": "Cadherin-7 (protein, UniProt Q90763 48-785)", "chain": "SWVWNQFFVLEEYMGSDPLYVGKLHSDVDKGDGSIKYILSGEGASSIFIIDENTGDIHATKRLDREEQAYYTLRAQAHDRLTNKPVEPESEFVIKIQDINDNEPKFLDGPYTAGVPEMSPVGTSVVQVTATDADDPTYGNSARVVYSILQGQPYFSVEPKTGIIKTALPNMDREAKDQYLLVIQAKDMVGQNGGLSGTTSVTVTLTDVNDNPPRFPRRSYQYNVPESLPLASVVARIKAADADVGPNAEMEYKIVDGDGLGVFKISVDKDTQEGIITIQKELDFEAKTSYTLRIEAANMHVDPRFLSLGPFSDMTTVKIIVEDVDEPPVFTSRLYSMVVSEAAKVGTIIGTVAAHDPDASNSPVRYSIDRNTDLERYFNIDANSGVITTAKSLDRETNAVHNITVLAMESQNPAQIGRGYVAITILDINDNAPEFAMEYETTVCENAQPGQIIQKISAIDKDDPPNGHQFYFSLTAEAANNHNFTLQDNKDNTATVLTRRNGFRRQEQSVFYLPIFIVDSGSPSLSSTNTLTIRVCDCDADGIAQTCNAEAYILPAGLSTGALIAILACVLTLLVLVLLIVTMRRRKKEPLIFDEERDIRENIVRYDDEGGGEEDTEAFDMAALRNLNIIRDTKTRRDVTPEIQFLSRPTFKSIPDNVIFREFIWERLKEADVDPCAPPYDSLQTYAFEGNGSVAESLSSLDSISSNSDQNYDYLSDWGPRFKRLADMYGSGPDCLYS"}, "B2": {"name": "Cadherin-7 GFP1-10 (natural protein, chick, UniProt Q90763 48-785, looked up)", "chain": "B1 chain", "notes": "Synthesized by GenScript; also called Cad7 GFP1-10; source: CHO cells, transfected, in cells; chick embryo, electroporated in ovo into premigratory neural crest cells; not shown: split GFP subunits 1-10 (GFP1-10), N-terminal, kept"}, "B3": {"name": "Cadherin-7 GFP11 (natural protein, chick, UniProt Q90763 48-785, looked up)", "chain": "B1 chain", "notes": "Synthesized by GenScript; also called Cad7 GFP11; Cad711; source: CHO cells, transfected, in cells; chick embryo, electroporated in ovo into premigratory neural crest cells; not shown: split GFP subunit 11 (GFP11), N-terminal, kept"}, "B4": {"name": "N-cadherin GFP1-10 (natural protein, chick, UniProt P10288 165-912, looked up)", "chain": "DWVIPPINLPENSRGPFPQELVRIRSDRDKSLSLRYSVTGPGADQPPTGIFIINPISGQLSVTKPLDREQIASFHLRAHAVDVNGNQVENPIDIVINVIDMNDNRPEFLHQVWNGTVPEGSKPGTYVMTVTAIDADDPNAQNGMLRYRILSQAPSSPSPNMFTINNETGDIITVAAGLDREKVQQYTLIIQATDMEGNPTYGLSNTATAVITVTDVNDNPPEFTAMTFYGEVPENRVDVIVANLTVTDKDQPHTPAWNARYQMTGGDPTGQFTILTDPNSNDGLVTVVKPIDFETNRMFVLTVAAENQVPLAKGIQHPPQSTATVSITVIDVNESPYFVPNPKLVRQEEGLLAGSMLTTFTARDPDRYMQQTSLRYSKLSDPANWLKIDPVNGQITTTAVLDRESIYVQNNMYNATFLASDNGIPPMSGTGTLQIYLLDINDNAPQVNPKEATTCETLQPNAINITAVDPDIDPNAGPFAFELPDSPPSIKRNWTIVRISGDHAQLSLRIRFLEAGIYDVPIVITDSGNPHASSTSVLKVKVCQCDINGDCTDVDRIVGAGLGTGAIIAILLCIIILLILVLMFVVWMKRRDKERQAKQLLIDPEDDVRDNILKYDEEGGGEEDQDYDLSQLQQPDTVEPDAIKPVGIRRLDERPIHAEPQYPVRSAAPHPGDIGDFINEGLKAADNDPTAPPYDSLLVFDYEGSGSTAGSLSSLNSSSSGGEQDYDYLNDWGPRFKKLADMYGGGDD", "notes": "Synthesized by GenScript; also called N-cad GFP1-10; N-cad GFP 1-10; source: CHO cells, transfected, in cells; chick embryo, electroporated in ovo into trigeminal placode cells; not shown: split GFP subunits 1-10 (GFP1-10), N-terminal, kept"}}, "key": {"[1]": {"biological_target": "neural cadherin (N-cadherin) (chick (endogenous in trigeminal ganglia of HH15-16 embryos)) (UniProt P10288)", "test": "co-IP; lysate of dissected HH15-16 chick trigeminal ganglia (50 mM Tris pH 8.0, 150 mM NaCl, 1% IGEPAL CA-630); IP with rabbit polyclonal N-cadherin antibody overnight at 4°C, protein A/G magnetic beads; immunoblot for Cadherin-7; normal rabbit IgG as control"}, "N-cadherin GFP11 [2]": {"biological_target": "T1, N-cadherin GFP11 (chick, UniProt P10288 165-912)", "T1 construct": "Synthesized by GenScript; also called N-cad GFP11; N-cad GFP 11; source: CHO cells, transfected, in cells; chick embryo, electroporated in ovo into trigeminal placode cells; not shown: split GFP subunit 11 (GFP11), N-terminal, kept", "T1 sequence (looked up)": "B4 chain", "test": "split reporter; GRASP in vivo, in trans: sequential in ovo electroporation of a Cadherin-7 split GFP construct into premigratory neural crest cells and of the complementary N-cadherin split GFP construct into trigeminal placode cells of chick embryos; GFP on transverse sections of the trigeminal ganglion at …"}, "Cadherin-7 GFP11": {"biological_target": "B3", "test": "split reporter; GRASP (split GFP1-10 / GFP11 on the cadherin extracellular domain); both constructs co-transfected into CHO cells (in cis); GFP fluorescence by confocal imaging, GFP+ cells/DAPI+ cells"}, "N-cadherin GFP11 [3]": {"biological_target": "T1, N-cadherin GFP11", "test": "split reporter; GRASP (split GFP1-10 / GFP11 on the cadherin extracellular domain); both constructs co-transfected into CHO cells (in cis); GFP fluorescence by confocal imaging, GFP+ cells/DAPI+ cells"}, "N-cadherin GFP1-10 [4]": {"biological_target": "B4", "test": "split reporter; GRASP in vivo, in trans: sequential in ovo electroporation of a Cadherin-7 split GFP construct into premigratory neural crest cells and of the complementary N-cadherin split GFP construct into trigeminal placode cells of chick embryos; GFP on transverse sections of the trigeminal ganglion at …"}, "N-cadherin GFP1-10 [5]": {"biological_target": "B4", "test": "split reporter; GRASP (split GFP1-10 / GFP11 on the cadherin extracellular domain); both constructs co-transfected into CHO cells (in cis); GFP fluorescence by confocal imaging, GFP+ cells/DAPI+ cells"}, "N-cadherin GFP11 [6]": {"biological_target": "T1, N-cadherin GFP11", "test": "split reporter; GRASP in vivo, in cis: co-electroporation of both N-cadherin split GFP constructs into trigeminal placode cells of chick embryos; GFP on transverse sections, GFP+ cells/N-cad+ cells"}}, "note": "Results are given in words; binding and its absence hold for the method and conditions named. Binding seen in cells or lysates may run through a third protein. Some binding calls cover weakened binding; strength is not graded here. For some assays here: Where a sequence is shown, tags or fusion partners need not be part of it.", "data": [{"binder": "B1", "values": [{"measurement": "binding", "setting": "[1]", "value": "binds"}]}, {"binder": "B2", "values": [{"measurement": "binding", "setting": "N-cadherin GFP11 [2]", "value": "binds"}, {"measurement": "binding", "setting": "Cadherin-7 GFP11", "value": "binds"}, {"measurement": "binding", "setting": "N-cadherin GFP11 [3]", "value": "binds"}]}, {"binder": "B3", "values": [{"measurement": "binding", "setting": "N-cadherin GFP1-10 [4]", "value": "binds"}, {"measurement": "binding", "setting": "N-cadherin GFP1-10 [5]", "value": "binds"}]}, {"binder": "B4", "values": [{"measurement": "binding", "setting": "N-cadherin GFP11 [3]", "value": "binds"}, {"measurement": "binding", "setting": "N-cadherin GFP11 [6]", "value": "binds"}]}]}
